SMILES strings stand for the structures. Only a part is listed here, and it is no random draw. The source made the active and inactive calls.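 The calls were made as follows: active = compound fluorescence over control fluorescence at most 0.8, a quencher, or at least a set upper limit, an enhancer; inactive = ratio between 0.8 and the set upper limit.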

A short description of the assay: fluorescence interference in NS3h DNA assay – biochemical, ChemBridge library, Cy5 readout, artefact control for HCV NS3 helicase inhibitor project (AID 720488). To be noted: Cy5-dT15 DNA with NS3h, at 100 µM, actives lie on both sides, signal over control mean, under 1 quenches.
As to `O=C(/C=C/c1ccccc1)Nc1cccc(F)c1`, the fluorescence interference ratio was active: 0.703. With `O=C(/C=C/c1ccccc1)Nc1ccc(F)cc1`, the fluorescence interference ratio is active: 0.686.
